Results published in publication PMC11867700, “TANGO2 is an acyl-CoA binding protein” (The Journal of Cell Biology, 2025).
No constants are given. Whether binding was seen depends on the method and setting. In cells and extracts the contact can be indirect. Some entries that bind do so weakly or less than the wild type. Where a sequence is shown, tags or fusion partners need not be part of it.

Target: TANGO2 isoform 1, Flag-tagged and mScarlet-tagged copies co-expressed in HepG2 cells (human) (UniProt Q6ICL3)
Test: co-IP; HepG2 cells cotransfected with TANGO2.Flag and TANGO2.mScarlet, 48 h; lysis in 50 mM Tris-HCl, 50 mM NaCl, 1% Triton X-100, 1 mM EDTA; anti-Flag agarose, 4°C, 1 h; blot against RFP

binding: binds
B1: TANGO2 isoform 1-Flag (TANGO2.Iso1-Flag), purified (natural protein, human, UniProt Q6ICL3-1 1-276, looked up)
chain: MCIIFFKFDPRPVSKNAYRLILAANRDEFYSRPSKLADFWGNNNEILSGLDMEEGKEGGTWLGISTRGKLAALTNYLQPQLDWQARGRGELVTHFLTTDVDSLSYLKKVSMEGHLYNGFNLIAADLSTAKGDVICYYGNRGEPDPIVLTPGTYGLSNALLETPWRKLCFGKQLFLEAVERSQALPKDVLIASLLDVLNNEEAQLPDPAIEDQGGEYVQPMLSKYAAVCVRCPGYGTRTNTIILVDADGHVTFTERSMMDKDLSHWETRTYEFTLQS
notes: TANGO2 isoform 1, human, UniProt Q6ICL3-1; C-terminal in-frame fusion with the Flag peptide; also called TANGO2.Flag; purified TANGO2
